Values quoted from earlier work as cited in patent US20180140566A1, “ACETAMINOPHEN AND TRAMADOL COMPOUND ORAL SOLUTION” (BORA PHARMACEUTICALS CO., LTD., priority 2016, published 2018).

Settings: in words

## CC(=O)Nc1ccc(O)cc1 [acetaminophen]
  solubility in water: dissolves poorly
